# Data reported in publication PMC1386686.
# Sequences of proteins named here, by UniProt entry; tags and fusion partners are left off.
# UniProt Q16539: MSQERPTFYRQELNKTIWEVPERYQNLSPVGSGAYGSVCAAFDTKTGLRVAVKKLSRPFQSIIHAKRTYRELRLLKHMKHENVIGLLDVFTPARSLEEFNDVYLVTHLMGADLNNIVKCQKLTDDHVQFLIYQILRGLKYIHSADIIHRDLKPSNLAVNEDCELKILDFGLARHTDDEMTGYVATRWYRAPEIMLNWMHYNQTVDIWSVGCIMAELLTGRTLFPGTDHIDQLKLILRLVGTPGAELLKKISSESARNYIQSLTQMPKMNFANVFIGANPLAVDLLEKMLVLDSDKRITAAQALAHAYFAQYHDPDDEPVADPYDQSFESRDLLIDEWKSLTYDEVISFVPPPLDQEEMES
# No constants are given. Whether binding was seen depends on the method and setting. In cells and extracts the contact can be indirect. Some entries that bind do so weakly or less than the wild type.
# Target: His6-p38 (UniProt Q16539)
# Assay: pull-down; 4 μg purified His6-p38 on Ni2+-NTA beads, blocked with 5% dry milk; 20 μl in vitro translated 35S-MEF2C incubated with or without SUMO reaction mixture added, 1 hr at RT; SDS-PAGE and autoradiography; only the target purified
substance,measurement,value
In vitro translated 35S-labeled MEF2C (from UniProt Q06413 1-473),binding,binds
